This is an account of results in the supplement of paper PMC10849652.

Chains of the proteins cited; added tags and fusions are not shown. Lines headed by an entry give the natural chain unless they say otherwise; changes in a name come on top.
UniProt Q9NRP2: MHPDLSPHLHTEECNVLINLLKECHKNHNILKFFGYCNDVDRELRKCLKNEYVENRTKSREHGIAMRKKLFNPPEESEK
UniProt Q9NX76: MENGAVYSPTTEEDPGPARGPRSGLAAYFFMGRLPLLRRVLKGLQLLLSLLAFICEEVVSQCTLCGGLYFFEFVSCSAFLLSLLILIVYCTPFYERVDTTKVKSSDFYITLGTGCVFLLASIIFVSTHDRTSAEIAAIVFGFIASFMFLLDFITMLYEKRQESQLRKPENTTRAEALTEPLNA
UniProt Q9BT09: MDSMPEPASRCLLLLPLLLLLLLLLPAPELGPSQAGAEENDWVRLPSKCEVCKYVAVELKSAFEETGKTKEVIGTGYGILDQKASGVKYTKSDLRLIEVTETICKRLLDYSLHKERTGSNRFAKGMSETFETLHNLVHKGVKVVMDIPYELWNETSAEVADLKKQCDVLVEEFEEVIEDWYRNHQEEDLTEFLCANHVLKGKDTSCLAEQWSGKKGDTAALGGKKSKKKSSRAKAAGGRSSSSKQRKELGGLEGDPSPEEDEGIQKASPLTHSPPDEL
UniProt Q99828: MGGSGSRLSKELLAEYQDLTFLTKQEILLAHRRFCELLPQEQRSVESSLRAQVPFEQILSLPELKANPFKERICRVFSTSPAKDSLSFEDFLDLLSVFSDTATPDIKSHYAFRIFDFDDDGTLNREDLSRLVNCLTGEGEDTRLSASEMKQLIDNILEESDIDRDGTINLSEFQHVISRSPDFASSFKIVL
UniProt Q6PJW8: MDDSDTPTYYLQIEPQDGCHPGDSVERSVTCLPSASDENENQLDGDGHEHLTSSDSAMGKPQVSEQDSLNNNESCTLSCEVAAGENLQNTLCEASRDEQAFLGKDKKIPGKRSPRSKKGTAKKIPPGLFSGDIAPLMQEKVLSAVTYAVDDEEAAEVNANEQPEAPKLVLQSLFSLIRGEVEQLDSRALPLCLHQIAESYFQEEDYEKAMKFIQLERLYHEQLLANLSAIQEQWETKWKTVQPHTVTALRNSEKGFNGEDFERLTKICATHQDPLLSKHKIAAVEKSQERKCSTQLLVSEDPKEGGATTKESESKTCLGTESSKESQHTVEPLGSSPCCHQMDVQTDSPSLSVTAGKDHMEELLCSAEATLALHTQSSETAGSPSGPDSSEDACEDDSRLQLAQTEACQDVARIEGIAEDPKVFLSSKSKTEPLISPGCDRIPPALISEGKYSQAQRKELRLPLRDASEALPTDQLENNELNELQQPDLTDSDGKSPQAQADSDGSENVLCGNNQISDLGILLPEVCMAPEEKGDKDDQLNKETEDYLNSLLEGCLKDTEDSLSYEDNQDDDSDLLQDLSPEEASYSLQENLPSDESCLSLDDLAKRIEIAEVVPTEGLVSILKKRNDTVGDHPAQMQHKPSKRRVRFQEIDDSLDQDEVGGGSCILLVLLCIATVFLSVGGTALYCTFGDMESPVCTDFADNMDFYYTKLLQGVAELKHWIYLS
UniProt Q9GZY4: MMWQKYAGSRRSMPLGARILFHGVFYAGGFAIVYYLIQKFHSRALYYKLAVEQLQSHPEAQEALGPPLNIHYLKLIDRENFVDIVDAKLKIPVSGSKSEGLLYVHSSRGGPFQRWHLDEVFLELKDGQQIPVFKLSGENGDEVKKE
UniProt Q9Y2B0: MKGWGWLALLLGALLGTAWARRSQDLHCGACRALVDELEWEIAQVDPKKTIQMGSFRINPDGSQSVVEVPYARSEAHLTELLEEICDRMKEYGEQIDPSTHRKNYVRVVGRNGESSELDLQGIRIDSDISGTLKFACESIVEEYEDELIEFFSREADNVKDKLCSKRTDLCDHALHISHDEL
UniProt Q7Z7K0: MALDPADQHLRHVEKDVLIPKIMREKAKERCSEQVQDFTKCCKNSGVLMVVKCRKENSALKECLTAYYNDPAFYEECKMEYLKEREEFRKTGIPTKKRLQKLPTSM
UniProt Q8WUX9: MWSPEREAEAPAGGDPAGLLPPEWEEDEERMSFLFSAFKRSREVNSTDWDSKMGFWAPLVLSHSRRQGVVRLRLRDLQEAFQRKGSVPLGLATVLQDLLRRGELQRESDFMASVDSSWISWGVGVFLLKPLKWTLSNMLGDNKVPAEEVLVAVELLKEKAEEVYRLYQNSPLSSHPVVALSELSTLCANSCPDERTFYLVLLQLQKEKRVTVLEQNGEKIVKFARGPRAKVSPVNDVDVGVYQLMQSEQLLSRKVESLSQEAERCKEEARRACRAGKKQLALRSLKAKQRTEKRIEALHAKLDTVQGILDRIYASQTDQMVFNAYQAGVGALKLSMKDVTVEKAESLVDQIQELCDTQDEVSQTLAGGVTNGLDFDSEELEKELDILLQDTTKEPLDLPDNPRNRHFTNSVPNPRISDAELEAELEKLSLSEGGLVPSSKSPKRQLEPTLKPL
UniProt P0C7P0: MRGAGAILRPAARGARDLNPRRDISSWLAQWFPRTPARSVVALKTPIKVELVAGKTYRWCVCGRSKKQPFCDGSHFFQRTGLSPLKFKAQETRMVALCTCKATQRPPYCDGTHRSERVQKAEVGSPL
UniProt Q9UHD1: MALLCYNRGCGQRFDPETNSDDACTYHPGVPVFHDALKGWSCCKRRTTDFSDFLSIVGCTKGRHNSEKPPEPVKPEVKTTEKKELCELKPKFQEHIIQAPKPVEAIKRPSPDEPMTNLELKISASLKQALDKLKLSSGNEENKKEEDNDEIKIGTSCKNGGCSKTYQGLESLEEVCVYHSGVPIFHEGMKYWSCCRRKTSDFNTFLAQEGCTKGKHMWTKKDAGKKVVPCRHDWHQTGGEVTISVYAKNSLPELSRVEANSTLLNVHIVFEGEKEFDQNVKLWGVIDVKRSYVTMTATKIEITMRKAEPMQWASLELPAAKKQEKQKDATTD
UniProt P06732: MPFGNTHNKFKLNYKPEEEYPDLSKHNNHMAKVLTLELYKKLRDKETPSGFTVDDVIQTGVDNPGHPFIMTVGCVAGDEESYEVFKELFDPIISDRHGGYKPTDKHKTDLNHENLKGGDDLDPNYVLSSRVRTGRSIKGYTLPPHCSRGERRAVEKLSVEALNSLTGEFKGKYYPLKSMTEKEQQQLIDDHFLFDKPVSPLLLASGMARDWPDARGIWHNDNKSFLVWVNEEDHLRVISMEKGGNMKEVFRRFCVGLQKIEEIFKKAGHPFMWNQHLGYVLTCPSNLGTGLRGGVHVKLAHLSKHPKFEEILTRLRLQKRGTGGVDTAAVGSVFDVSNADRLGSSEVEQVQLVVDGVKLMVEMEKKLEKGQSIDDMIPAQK
UniProt Q6P4Q7: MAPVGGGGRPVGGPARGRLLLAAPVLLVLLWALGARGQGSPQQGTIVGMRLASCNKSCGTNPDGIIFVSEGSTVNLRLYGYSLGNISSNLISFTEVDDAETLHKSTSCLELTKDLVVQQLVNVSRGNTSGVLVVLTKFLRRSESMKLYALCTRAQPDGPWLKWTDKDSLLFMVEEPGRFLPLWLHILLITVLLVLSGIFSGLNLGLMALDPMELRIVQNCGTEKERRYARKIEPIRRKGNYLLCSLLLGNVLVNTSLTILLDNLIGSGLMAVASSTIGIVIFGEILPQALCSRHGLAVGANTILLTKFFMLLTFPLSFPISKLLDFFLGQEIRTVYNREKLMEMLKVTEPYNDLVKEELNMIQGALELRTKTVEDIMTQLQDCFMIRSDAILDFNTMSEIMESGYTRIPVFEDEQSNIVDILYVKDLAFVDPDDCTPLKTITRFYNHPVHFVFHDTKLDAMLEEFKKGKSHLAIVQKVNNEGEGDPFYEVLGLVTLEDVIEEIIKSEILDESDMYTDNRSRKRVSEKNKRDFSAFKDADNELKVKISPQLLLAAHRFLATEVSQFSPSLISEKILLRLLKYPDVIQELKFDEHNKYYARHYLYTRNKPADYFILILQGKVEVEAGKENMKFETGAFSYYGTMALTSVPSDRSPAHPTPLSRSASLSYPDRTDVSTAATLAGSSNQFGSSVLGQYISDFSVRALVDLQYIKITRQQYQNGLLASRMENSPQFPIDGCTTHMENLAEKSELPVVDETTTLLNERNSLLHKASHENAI
UniProt Q8NCH0: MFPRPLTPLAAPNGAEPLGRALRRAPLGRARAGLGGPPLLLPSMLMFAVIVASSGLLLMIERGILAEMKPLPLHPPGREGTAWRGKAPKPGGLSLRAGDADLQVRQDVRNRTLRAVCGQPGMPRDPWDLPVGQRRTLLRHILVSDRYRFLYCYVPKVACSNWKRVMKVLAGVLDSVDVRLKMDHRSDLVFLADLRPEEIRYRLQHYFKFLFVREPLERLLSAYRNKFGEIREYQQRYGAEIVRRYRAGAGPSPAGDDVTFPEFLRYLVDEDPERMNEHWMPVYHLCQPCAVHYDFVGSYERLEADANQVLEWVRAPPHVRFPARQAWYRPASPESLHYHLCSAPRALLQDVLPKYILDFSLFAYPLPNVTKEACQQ
UniProt Q14008: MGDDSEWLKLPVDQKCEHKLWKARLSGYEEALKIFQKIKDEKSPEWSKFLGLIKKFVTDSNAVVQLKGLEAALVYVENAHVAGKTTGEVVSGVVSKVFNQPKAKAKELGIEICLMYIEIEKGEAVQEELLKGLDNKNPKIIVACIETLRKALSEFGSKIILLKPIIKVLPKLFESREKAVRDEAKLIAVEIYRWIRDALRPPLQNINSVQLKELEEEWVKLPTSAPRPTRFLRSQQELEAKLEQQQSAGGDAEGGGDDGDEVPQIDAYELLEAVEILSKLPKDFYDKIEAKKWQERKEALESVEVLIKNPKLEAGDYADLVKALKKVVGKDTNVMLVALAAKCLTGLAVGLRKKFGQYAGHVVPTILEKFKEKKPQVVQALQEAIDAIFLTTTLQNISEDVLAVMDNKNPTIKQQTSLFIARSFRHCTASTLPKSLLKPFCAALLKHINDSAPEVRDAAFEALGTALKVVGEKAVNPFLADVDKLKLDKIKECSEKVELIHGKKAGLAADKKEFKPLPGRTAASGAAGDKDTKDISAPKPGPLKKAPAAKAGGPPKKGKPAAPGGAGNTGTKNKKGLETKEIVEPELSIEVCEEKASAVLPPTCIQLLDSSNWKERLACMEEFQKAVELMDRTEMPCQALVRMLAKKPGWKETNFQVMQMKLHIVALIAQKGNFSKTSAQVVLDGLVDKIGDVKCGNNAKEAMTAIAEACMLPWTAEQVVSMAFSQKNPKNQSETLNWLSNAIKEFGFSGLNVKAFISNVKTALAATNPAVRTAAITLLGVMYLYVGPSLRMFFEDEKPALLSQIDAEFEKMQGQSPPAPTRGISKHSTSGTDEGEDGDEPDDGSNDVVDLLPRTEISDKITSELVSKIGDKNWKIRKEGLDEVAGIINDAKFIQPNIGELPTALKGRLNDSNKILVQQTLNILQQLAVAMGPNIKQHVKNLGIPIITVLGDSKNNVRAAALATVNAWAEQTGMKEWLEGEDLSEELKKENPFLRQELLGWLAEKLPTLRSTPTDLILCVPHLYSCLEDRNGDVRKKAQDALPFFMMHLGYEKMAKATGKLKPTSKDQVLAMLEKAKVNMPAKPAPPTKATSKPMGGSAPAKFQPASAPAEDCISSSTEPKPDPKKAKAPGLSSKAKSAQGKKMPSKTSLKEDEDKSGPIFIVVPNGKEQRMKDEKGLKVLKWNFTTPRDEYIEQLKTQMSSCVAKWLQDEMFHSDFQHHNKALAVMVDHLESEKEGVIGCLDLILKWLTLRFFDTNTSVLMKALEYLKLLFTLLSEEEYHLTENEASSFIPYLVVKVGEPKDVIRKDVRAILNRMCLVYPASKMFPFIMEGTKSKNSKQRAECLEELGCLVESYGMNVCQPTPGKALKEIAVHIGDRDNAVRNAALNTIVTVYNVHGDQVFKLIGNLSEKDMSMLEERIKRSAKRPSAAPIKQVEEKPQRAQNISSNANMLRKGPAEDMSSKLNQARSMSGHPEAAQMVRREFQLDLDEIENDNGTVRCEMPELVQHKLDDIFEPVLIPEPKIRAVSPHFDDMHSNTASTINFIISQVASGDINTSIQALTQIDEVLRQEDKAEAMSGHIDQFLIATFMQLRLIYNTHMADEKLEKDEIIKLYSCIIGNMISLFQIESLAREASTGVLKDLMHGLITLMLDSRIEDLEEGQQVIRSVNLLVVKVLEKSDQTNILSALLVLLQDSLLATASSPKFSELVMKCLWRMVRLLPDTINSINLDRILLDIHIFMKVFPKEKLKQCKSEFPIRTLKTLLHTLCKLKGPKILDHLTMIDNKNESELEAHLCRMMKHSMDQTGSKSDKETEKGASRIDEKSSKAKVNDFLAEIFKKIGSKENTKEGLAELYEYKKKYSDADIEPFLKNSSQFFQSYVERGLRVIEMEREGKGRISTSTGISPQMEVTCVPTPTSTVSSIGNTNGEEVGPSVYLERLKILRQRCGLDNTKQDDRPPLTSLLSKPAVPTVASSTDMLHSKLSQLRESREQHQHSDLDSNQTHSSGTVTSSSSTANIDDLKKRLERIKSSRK
UniProt Q8N5K1: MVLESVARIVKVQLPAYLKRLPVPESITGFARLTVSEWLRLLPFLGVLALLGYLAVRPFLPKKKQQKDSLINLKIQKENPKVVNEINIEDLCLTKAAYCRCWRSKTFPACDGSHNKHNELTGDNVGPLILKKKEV

The other results are listed elsewhere or left out. Residues, ends and D or L forms follow the SMILES beside them. *: point of attachment. Cbz = O=C(OCc1ccccc1)*

Compound in one experiment: CC(C)C1=C2N=C(C=C(N2N=C1)NCC3=CC=CC=C3)NCCCCCCN
As to the kind of experiment: log2 fold change, soluble protein after heating vs DMSO (PISA); higher = thermal stabilisation; K562 cells, 10 uM, 30 min; active = over 0.2 and 3.5 SD of the protein, either way, in both replicates (recomputed). In short, it runs like this: (§1)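 For each measurement, 10 μM compound was applied for 30 min to K562 cells at 2×10^6 cells/mL. Aliquots were heated for 3 min across 48°C-58°C, pooled, and extracted in PBS with 0.5% NP-40 at 4°C; the supernatant after 21,000xg for 90 min was soluble protein. This was quantified by TMTpro 16plex LC-MS/MS with channel sums equalised, and thermal stability was reported relative to control samples from duplicates, on a log2 fold-change scale.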
Consider CMC2 (UniProt Q9NRP2), for which the log2 fold change was inactive: -0.07.

For the target CMTM6 (UniProt Q9NX76), the log2 fold change was inactive: 0.223.

As to CNPY3 (UniProt Q9BT09), the log2 fold change is inactive: -0.05.

On to CIB1 isoform 2 (UniProt Q99828), for which the log2 fold change is inactive: -0.064.

CNST (UniProt Q6PJW8): the log2 fold change was inactive: -0.026.

For the target CIAO3 (UniProt Q9H6Q4), the log2 fold change is inactive: -0.044.

For CNOT11 (UniProt Q9UKZ1), the log2 fold change was inactive: -0.021.

In the case of COA1 (UniProt Q9GZY4), the log2 fold change was inactive: -0.132.

As for CNPY2 (UniProt Q9Y2B0), the log2 fold change is inactive: 0.03.

For CISD1 (UniProt Q9NZ45), the log2 fold change is inactive: 0.012.

CNOT6L (UniProt Q96LI5): the log2 fold change was inactive: -0.026.

Turning to CNOT10 isoform 6 (UniProt Q9H9A5), the log2 fold change is inactive: -0.082.

Turning to CNOT3 (UniProt O75175), the log2 fold change was inactive: -0.043.

COA7 (UniProt Q96BR5): the log2 fold change was inactive: -0.001.

CNTNAP4 (UniProt Q9C0A0): the log2 fold change was inactive: 0.004.

For the target CMC1 (UniProt Q7Z7K0), the log2 fold change was inactive: 0.095.

For CHMP7 (UniProt Q8WUX9), the log2 fold change is inactive: -0.252.

With CISD3 (UniProt P0C7P0), the log2 fold change is inactive: -0.066.

With CHURC1 isoform 2 (UniProt Q8WUH1), the log2 fold change is inactive: 0.026.

Regarding CNOT9 isoform 2 (UniProt Q92600), the log2 fold change is inactive: -0.006.

On to CKMT2 (UniProt P17540), for which the log2 fold change is inactive: 0.039.

COL1A2 (UniProt P08123): the log2 fold change is inactive: 0.399.

CMAS (UniProt Q8NFW8): the log2 fold change was inactive: 0.048.

Consider CNP (UniProt P09543), for which the log2 fold change is inactive: 0.052.

In the case of CHORDC1 (UniProt Q9UHD1), the log2 fold change is inactive: -0.007.

With CKM (UniProt P06732), the log2 fold change is inactive: -0.028.

With CNNM3 (UniProt Q8NE01), the log2 fold change is inactive: 0.019.

Consider CNNM4 (UniProt Q6P4Q7), for which the log2 fold change is inactive: 0.034.

In the case of CHST14 (UniProt Q8NCH0), the log2 fold change was inactive: -0.008.

Regarding CKAP5 (UniProt Q14008), the log2 fold change is inactive: -0.245.

Take CISD2 (UniProt Q8N5K1): the log2 fold change was inactive: 0.047.

With CKMT1A (UniProt P12532), the log2 fold change was inactive: 0.071.

Compound in a further experiment: CC(C)C[C@@H](C=O)NC(=O)[C@H](CC(C)C)NC(=O)[C@H](CC(C)C)NC(=O)OCc1ccccc1
The experiment is described as above. Put shortly:
as §1
As to CMC2 (UniProt Q9NRP2), the log2 fold change was inactive: -0.132.

In the case of CMTM6 (UniProt Q9NX76), the log2 fold change is inactive: 0.084.

Consider CNPY3 (UniProt Q9BT09), for which the log2 fold change was inactive: -0.056.

Turning to CIB1 isoform 2 (UniProt Q99828), the log2 fold change is inactive: 0.035.

With CNST (UniProt Q6PJW8), the log2 fold change is inactive: 0.03.

Regarding CIAO3 (UniProt Q9H6Q4), the log2 fold change was inactive: 0.001.

CNOT11 (UniProt Q9UKZ1): the log2 fold change is inactive: 0.061.

Consider COA1 (UniProt Q9GZY4), for which the log2 fold change is inactive: 0.037.

For CNPY2 (UniProt Q9Y2B0), the log2 fold change is inactive: -0.008.

Consider CISD1 (UniProt Q9NZ45), for which the log2 fold change was inactive: -0.013.

CNOT6L (UniProt Q96LI5): the log2 fold change was inactive: 0.053.

As to CNOT10 isoform 6 (UniProt Q9H9A5), the log2 fold change is inactive: 0.045.

Turning to CNOT3 (UniProt O75175), the log2 fold change is inactive: -0.005.

For the target COA7 (UniProt Q96BR5), the log2 fold change was inactive: -0.096.

As to CNTNAP4 (UniProt Q9C0A0), the log2 fold change is inactive: 0.055.

Regarding CMC1 (UniProt Q7Z7K0), the log2 fold change was inactive: -0.005.

For CHMP7 (UniProt Q8WUX9), the log2 fold change was inactive: -0.035.

Take CISD3 (UniProt P0C7P0): the log2 fold change was inactive: -0.003.

Turning to CHURC1 isoform 2 (UniProt Q8WUH1), the log2 fold change was inactive: 0.026.

On to CNOT9 isoform 2 (UniProt Q92600), for which the log2 fold change is inactive: 0.006.

On to CKMT2 (UniProt P17540), for which the log2 fold change is inactive: 0.019.

On to COL1A2 (UniProt P08123), for which the log2 fold change was inactive: 0.057.

As to CMAS (UniProt Q8NFW8), the log2 fold change was inactive: 0.1.

Turning to CNP (UniProt P09543), the log2 fold change is inactive: 0.011.

CHORDC1 (UniProt Q9UHD1): the log2 fold change was inactive: -0.034.

As to CKM (UniProt P06732), the log2 fold change is inactive: 0.

Take CNNM3 (UniProt Q8NE01): the log2 fold change was inactive: 0.05.

Consider CNNM4 (UniProt Q6P4Q7), for which the log2 fold change was inactive: 0.035.

CHST14 (UniProt Q8NCH0): the log2 fold change is inactive: -0.07.

As for CKAP5 (UniProt Q14008), the log2 fold change is inactive: 0.066.

In the case of CISD2 (UniProt Q8N5K1), the log2 fold change is inactive: -0.01.

As to CKMT1A (UniProt P12532), the log2 fold change is inactive: -0.016.

Compound in a further experiment: CC(C)N(C[C@H]1O[C@@H](n2cnc3c(N)ncnc32)[C@H](O)[C@@H]1O)[C@H]1C[C@@H](CCc2nc3cc(C(C)(C)C)ccc3[nH]2)C1 [pinometostat]
Described as above. Put shortly:
as §1
For the target CMC2 (UniProt Q9NRP2), the log2 fold change is inactive: -0.085.

Regarding CMTM6 (UniProt Q9NX76), the log2 fold change is inactive: 0.044.

With CNPY3 (UniProt Q9BT09), the log2 fold change was inactive: -0.017.

In the case of CIB1 isoform 2 (UniProt Q99828), the log2 fold change is inactive: -0.091.

As to CNST (UniProt Q6PJW8), the log2 fold change is inactive: -0.046.

Regarding CIAO3 (UniProt Q9H6Q4), the log2 fold change is inactive: -0.031.

With CNOT11 (UniProt Q9UKZ1), the log2 fold change is inactive: 0.064.

For COA1 (UniProt Q9GZY4), the log2 fold change was inactive: -0.004.

Turning to CNPY2 (UniProt Q9Y2B0), the log2 fold change was inactive: -0.079.

For CISD1 (UniProt Q9NZ45), the log2 fold change is inactive: -0.039.

As to CNOT6L (UniProt Q96LI5), the log2 fold change is inactive: 0.012.

Regarding CNOT10 isoform 6 (UniProt Q9H9A5), the log2 fold change is inactive: 0.056.

CNOT3 (UniProt O75175): the log2 fold change is inactive: 0.038.

As to COA7 (UniProt Q96BR5), the log2 fold change was inactive: -0.065.

With CNTNAP4 (UniProt Q9C0A0), the log2 fold change is inactive: 0.293.

Take CMC1 (UniProt Q7Z7K0): the log2 fold change is inactive: -0.01.

Take CHMP7 (UniProt Q8WUX9): the log2 fold change is inactive: 0.127.

Consider CISD3 (UniProt P0C7P0), for which the log2 fold change was inactive: 0.009.

For the target CHURC1 isoform 2 (UniProt Q8WUH1), the log2 fold change is inactive: 0.061.

As to CNOT9 isoform 2 (UniProt Q92600), the log2 fold change was inactive: 0.014.

Regarding CKMT2 (UniProt P17540), the log2 fold change was inactive: 0.029.

Regarding COL1A2 (UniProt P08123), the log2 fold change is inactive: 0.101.

On to CMAS (UniProt Q8NFW8), for which the log2 fold change was inactive: 0.194.

With CNP (UniProt P09543), the log2 fold change is inactive: -0.017.

Consider CHORDC1 (UniProt Q9UHD1), for which the log2 fold change is inactive: -0.022.

As to CKM (UniProt P06732), the log2 fold change is inactive: 0.022.

Take CNNM3 (UniProt Q8NE01): the log2 fold change was inactive: -0.026.

Regarding CNNM4 (UniProt Q6P4Q7), the log2 fold change is inactive: -0.082.

On to CHST14 (UniProt Q8NCH0), for which the log2 fold change is inactive: 0.052.

For CKAP5 (UniProt Q14008), the log2 fold change is inactive: 0.209.

As for CISD2 (UniProt Q8N5K1), the log2 fold change was inactive: -0.048.

In the case of CKMT1A (UniProt P12532), the log2 fold change is inactive: 0.002.
